Experiment: general procedure: peptide synthesis; Sieber amide resin; 2-CTC hydrazide resin; DIC/OXYMA; HATU/DIEA for fragment coupling
Details: late stage modification step, calculated by UPLC against tirzepatide reference standard

## tirzepatide
  step yield: estimated to be 47%

Reference: patent US12304938B2 (Eli Lilly and Company, priority 2022, dated 2025)
